# Patent US7939657B2, “N-substituted benzene sulfonamides” (Elan Pharmaceuticals, Inc., priority 2003, dated 2011)
# pIC50: −log10 of the molar value. Some of these results come from one statement about several compounds together. At least one compound was matched to its structure with a doubt left.
# Target: gamma secretase cleavage of NotchΔE (constitutively active rat Notch1 construct ZEDN1)
# Experiment: Notch signaling assay for selective inhibitors of gamma secretase (4xwtCBF1 Luciferase reporter gene co-transfected with NotchΔE ZEDN1)
# Format: cell-based
# Details: 'the above assay' (reporter gene based Notch signaling assay); ranges stated as 'from about'
# Excerpt: “A presenilin-1-dependent gamma-secretase-like protease mediates release of Notch intracellular domain.” Nature 398(6727): 518-22; Mumm, J. S., E. H. Schroeter, M. T. Saxena, A. Griesemer, X. Tian, D. J. Pan, W. J. Ray and R. Kopan (2000). “A ligand-induced extracellular cleavage regulates gamma-secretase-like proteolytic activation of Notch1.” Mol Cell 5(2): 197-206; Zhang, Z., P. Nadeau, W. Song, D. Donoviel, M. Yuan, A. Bernstein and B. A. Yankner (2000). “Presenilins are required for gamma-secretase cleavage of beta-APP and transmembrane cleavage of Notch-1.” Nat Cell Biol 2(7): 463-5). Cleavage of APP by gamma secretase leads to β-amyloid synthesis. Cleavage of Notch1 by gamma secretase results in release of the Notch intracellular domain (NICD), which translocates to the nucleus and activates gene expression (Jarriault, S., C. Brou, F. Logeat, E. H. Schroeter, R. Kopan and A. Israel (1995). “Signalling downstream of activated mammalian Notch.” Nature 377(6547): 355-8; Kopan, R., E. H. Schroeter, H. Weintraub and J. S. Nye (1996). “Signal transduction by activated Notch: importance of proteolytic processing and its regulation by the extracellular domain.” Proc Natl Acad Sci USA 93(4): 1683-8; Schroeter, E. H., J. A. Kisslinger and R. Kopan (1998). “Notch-1 signalling requires ligand-induced proteolytic release of intracellular domain.” Nature 393(6683): 382-6). […]
compound,measurement,value
"O=C1NCCCCC1N(CC1CC1)S(=O)(=O)c1ccc(Cl)cc1 (stereo not shown) [Compound 52, 4-Chloro-N-cyclopropylmethyl-N-(2-oxo-azepan-3-yl)-beenzenesulfonamide]",pIC50,6.00 to 7.00
